{
  "sequences": {"note": "Chains of the proteins cited; added tags and fusions are not shown. Residues count along the entry.", "UniProt P35222": "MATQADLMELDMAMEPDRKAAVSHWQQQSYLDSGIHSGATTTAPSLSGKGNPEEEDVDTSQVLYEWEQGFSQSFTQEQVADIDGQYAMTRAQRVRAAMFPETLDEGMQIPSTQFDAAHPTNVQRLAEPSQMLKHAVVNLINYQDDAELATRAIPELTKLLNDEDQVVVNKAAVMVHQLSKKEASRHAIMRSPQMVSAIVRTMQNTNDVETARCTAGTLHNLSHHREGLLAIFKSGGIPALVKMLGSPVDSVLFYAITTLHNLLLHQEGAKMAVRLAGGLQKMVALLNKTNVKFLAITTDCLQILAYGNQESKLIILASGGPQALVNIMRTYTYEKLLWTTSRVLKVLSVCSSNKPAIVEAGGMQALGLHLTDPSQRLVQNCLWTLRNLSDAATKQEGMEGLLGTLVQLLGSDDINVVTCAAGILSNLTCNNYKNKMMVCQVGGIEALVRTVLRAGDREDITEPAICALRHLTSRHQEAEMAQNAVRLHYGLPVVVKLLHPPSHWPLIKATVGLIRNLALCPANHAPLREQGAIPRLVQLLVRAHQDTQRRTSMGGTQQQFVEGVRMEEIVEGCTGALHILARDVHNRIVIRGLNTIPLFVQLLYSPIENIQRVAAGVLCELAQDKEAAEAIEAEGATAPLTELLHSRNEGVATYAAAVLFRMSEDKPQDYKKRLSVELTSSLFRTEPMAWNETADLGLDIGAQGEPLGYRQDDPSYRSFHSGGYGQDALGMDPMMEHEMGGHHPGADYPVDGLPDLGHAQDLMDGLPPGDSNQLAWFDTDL", "UniProt Q9Y219, residues 24-1238": "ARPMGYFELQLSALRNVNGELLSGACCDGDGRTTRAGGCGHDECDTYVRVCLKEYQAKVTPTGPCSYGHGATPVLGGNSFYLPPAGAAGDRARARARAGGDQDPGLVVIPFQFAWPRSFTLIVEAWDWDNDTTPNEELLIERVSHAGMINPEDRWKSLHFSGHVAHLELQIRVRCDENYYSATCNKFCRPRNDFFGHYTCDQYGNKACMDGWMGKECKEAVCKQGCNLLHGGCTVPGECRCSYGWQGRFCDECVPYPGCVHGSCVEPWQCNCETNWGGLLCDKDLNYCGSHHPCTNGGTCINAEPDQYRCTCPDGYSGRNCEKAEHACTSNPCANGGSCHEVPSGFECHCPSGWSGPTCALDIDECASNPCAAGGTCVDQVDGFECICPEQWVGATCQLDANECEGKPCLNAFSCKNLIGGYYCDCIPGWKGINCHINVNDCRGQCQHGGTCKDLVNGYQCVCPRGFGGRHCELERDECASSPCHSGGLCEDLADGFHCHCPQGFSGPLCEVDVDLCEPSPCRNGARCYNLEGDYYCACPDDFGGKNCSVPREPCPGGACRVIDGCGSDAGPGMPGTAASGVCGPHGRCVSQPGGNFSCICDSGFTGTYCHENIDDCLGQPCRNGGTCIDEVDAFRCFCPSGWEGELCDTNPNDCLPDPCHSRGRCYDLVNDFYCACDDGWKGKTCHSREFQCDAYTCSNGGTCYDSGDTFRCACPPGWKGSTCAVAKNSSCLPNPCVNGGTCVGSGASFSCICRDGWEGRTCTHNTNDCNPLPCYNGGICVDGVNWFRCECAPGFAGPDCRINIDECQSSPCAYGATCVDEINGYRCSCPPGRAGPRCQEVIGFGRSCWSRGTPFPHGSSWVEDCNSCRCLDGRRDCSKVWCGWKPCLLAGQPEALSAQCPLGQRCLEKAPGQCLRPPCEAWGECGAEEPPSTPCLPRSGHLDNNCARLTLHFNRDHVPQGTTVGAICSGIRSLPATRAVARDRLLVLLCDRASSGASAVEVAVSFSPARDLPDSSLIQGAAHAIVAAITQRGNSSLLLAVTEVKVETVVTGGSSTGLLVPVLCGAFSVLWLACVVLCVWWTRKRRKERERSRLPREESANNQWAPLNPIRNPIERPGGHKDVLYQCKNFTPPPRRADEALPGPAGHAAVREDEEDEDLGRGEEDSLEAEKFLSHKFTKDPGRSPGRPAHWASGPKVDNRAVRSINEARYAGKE"},
  "source": "paper doi:10.1101/2022.01.29.478334",
  "target": "β-catenin (human (endogenous in primary bronchial epithelial cells)) (UniProt P35222)",
  "experiment": "co-IP",
  "note": "Results are given in words; binding and its absence hold for the method and conditions named. In cells and extracts the contact can be indirect. Some entries that bind do so weakly or less than the wild type.",
  "data": [
    {"substance": "Jagged2 (JAG2) (from UniProt Q9Y219 24-1238)", "values": [
      {"measurement": "binding", "value": "binds"}
    ]}
  ]
}
